Measured values as given in paper PMC13196873.
No constants are given. Whether binding was seen depends on the method and setting. In cells and extracts the contact can be indirect. Some results given as binding are weak or reduced against the parent protein; the word gives no strength. Sequences can lack the tags named with a protein.

Protein sequences, listed by entry. Tags and fused reporters are not part of them.
UniProt P22460: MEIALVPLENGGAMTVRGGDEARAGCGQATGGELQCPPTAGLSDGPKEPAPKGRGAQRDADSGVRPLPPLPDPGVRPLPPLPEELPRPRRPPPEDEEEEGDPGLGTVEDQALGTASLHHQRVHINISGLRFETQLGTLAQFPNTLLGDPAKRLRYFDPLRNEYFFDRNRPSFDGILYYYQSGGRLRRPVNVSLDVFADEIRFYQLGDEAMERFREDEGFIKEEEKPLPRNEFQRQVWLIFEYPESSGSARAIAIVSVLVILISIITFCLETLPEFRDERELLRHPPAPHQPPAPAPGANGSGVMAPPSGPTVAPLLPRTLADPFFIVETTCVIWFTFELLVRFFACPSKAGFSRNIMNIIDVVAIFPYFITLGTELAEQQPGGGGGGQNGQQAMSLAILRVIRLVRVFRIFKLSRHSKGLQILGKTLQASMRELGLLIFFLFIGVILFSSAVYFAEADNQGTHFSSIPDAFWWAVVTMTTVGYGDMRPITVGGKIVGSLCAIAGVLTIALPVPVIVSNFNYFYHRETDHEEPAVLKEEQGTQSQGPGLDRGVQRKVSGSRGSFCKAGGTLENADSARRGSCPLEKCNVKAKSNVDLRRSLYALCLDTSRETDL

B1: Lgi3 (FLAG-tagged) (protein, UniProt Q8N145 31-548)
chain: KRPPKTPPCPPSCSCTRDTAFCVDSKAVPRNLPSEVISLTLVNAAFSEIQDGAFSHLPLLQFLLLNSNKFTLIGDNAFTGLSHLQYLFIENNDIWALSKFTFRGLKSLTHLSLANNNLQTLPRDIFRPLDILNDLDLRGNSLNCDCKVKWLVEWLAHTNTTVAPIYCASPPRFQEHKVQDLPLREFDCITTDFVLYQTLAFPAVSAEPFLYSSDLYLALAQPGVSACTILKWDYVERQLRDYDRIPAPSAVHCKPMVVDSQLYVVVAQLFGGSYIYHWDPNTTRFTRLQDIDPQRVRKPNDLEAFRIDGDWYFAVADSSKAGATSLYRWHQNGFYSHQALHPWHRDTDLEFVDGEGKPRLIVSSSSQAPVIYQWSRTQKQFVAQGEVTQVPDAQAVKHFRAGRDSYLCLSRYIGDSKILRWEGTRFSEVQALPSRGSLALQPFLVGGRRYLALGSDFSFTQIYQWDEGRQKFVRFQELAVQAPRAFCYMPAGDAQLLLAPSFKGQTLVYRHIVVDLSA
B2: Lgi4 (FLAG-tagged) (protein, UniProt Q8N135-1 20-537)
chain: WRPPKGKCPLRCSCSKDSALCEGSPDLPVSFSPTLLSLSLVRTGVTQLKAGSFLRIPSLHLLLFTSNSFSVIEDDAFAGLSHLQYLFIEDNEIGSISKNALRGLRSLTHLSLANNHLETLPRFLFRGLDTLTHVDLRGNPFQCDCRVLWLLQWMPTVNASVGTGACAGPASLSHMQLHHLDPKTFKCRAIELSWFQTVGESALSVEPFSYQGEPHIVLAQPFAGRCLILSWDYSLQRFRPEEELPAASVVSCKPLVLGPSLFVLAARLWGGSQLWARPSPGLRLAPTQTLAPRRLLRPNDAELLWLEGQPCFVVADASKAGSTTLLCRDGPGFYPHQSLHAWHRDTDAEALELDGRPHLLLASASQRPVLFHWTGGRFERRTDIPEAEDVYATRHFQAGGDVFLCLTRYIGDSMVMRWDGSMFRLLQQLPSRGAHVFQPLLIARDQLAILGSDFAFSQVLRLEPDKGLLEPLQELGPPALVAPRAFAHITMAGRRFLFAACFKGPTQIYQHHEIDLSA

Biological target: KV1.5 channel (UniProt P22460)
Assay: co-IP; HEK293 cells coexpressing KV1.5 and FLAG-tagged Lgi3 or Lgi4; lysates immunoprecipitated with anti-KV1.5 antibody, immunoblotted for KV1.5 and FLAG; also done with KVβ1.2 coexpressed (Figure S11C and D)

| Binder | binding |
| --- | --- |
| B1 | binds |
| B2 | binds |
